Reference: article PMC6843132
Results are given in words; binding and its absence hold for the method and conditions named. Some results given as binding are weak or reduced against the parent protein; the word gives no strength. Where a sequence is shown, tags or fusion partners need not be part of it.

Molecular target: T1, 6His-NF-YB2 (AtNF-YB2 aa 24-116) (A. thaliana) (UniProt Q9FGJ3)
T1 sequence: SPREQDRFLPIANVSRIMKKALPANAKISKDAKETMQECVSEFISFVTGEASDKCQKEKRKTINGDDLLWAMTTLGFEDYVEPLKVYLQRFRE
Test: co-purification (IMAC, then gel filtration); 6His-NF-YB2 and NF-YC3 co-expressed in E. coli; nickel IMAC, thrombin cleavage, gel filtration in 10 mM Tris-HCl pH 8.0, 400 mM NaCl, 2 mM DTT

B1: NF-YC3 (AtNF-YC3 aa 55-148) (domain or fragment, UniProt Q9ZVL3 55-148)
chain: TQFKEIEKTTDFKNHSLPLARIKKIMKADEDVRMISAEAPVVFARACEMFILELTLRSWNHTEENKRRTLQKNDIAAAVTRTDIFDFLVDIVPR
  binding: binds
